# Results of single-concentration screens

The chains behind the UniProt entries cited, without tags or fusion partners.
UniProt P9WPC5, whole entry: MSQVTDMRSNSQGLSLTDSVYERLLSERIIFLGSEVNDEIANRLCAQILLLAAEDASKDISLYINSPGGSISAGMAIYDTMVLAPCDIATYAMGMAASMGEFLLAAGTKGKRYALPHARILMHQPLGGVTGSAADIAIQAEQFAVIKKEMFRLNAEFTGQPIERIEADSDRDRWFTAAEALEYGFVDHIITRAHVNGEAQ
UniProt P9WPC3, whole entry partner: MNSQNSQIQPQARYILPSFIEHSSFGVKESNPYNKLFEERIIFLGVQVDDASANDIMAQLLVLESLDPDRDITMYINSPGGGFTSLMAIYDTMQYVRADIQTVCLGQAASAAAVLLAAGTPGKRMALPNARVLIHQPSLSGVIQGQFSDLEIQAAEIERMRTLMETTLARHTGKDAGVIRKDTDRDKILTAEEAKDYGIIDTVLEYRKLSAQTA
UniProt P9WNZ1, whole entry: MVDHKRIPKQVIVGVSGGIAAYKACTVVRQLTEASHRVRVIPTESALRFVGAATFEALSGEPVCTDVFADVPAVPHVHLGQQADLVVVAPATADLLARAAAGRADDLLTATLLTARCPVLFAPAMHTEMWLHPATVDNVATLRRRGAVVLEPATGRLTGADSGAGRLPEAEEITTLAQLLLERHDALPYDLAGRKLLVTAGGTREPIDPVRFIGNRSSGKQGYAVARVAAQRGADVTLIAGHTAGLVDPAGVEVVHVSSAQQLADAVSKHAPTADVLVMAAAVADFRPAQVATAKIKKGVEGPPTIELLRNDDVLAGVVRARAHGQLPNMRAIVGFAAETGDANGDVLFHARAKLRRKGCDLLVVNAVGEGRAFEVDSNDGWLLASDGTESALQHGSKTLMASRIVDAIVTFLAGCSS

A: 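Protease assay of ClpP1P2, read by the AMC dye that it sets free. Target: ClpP1P2, Mycobacterium tuberculosis (UniProt P9WPC5 and UniProt P9WPC3). Concentration: 50 µM. Higher reads as stronger inhibition, judged from the few compounds that gave an IC50. Most other retested compounds had strongly negative values. Size under these conditions: about 69,000 compounds, about 10 of them at 50% or above in at least one test.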
B: 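Coenzyme A biosynthesis protein CoaBC, Mycobacterium tuberculosis (UniProt P9WNZ1). Enzyme assay of CoaBC with a phosphate dye (Biomol Green) read at 650 nm. Tested at 30 µM. Direction is inferred from only a few compounds that gave an IC50; most scored high, so higher reads as stronger inhibition. Most strong results did not repeat in a second test. About 67,000 compounds were tested under these conditions; 0.06% (about 40) showed 50% or more at least once.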
C: 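Assay of Toxoplasma gondii numbers, read through their beta-galactosidase reporter with a colour substrate. Tested at 10 µM. Higher reads as fewer parasites (inferred from which compounds were picked for retests). Size under these conditions: about 67,000 compounds, about 260 of them at 50% or above in at least one test.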

Each number is a percent effect as filed. The controls that fix the scale are not given in the record; negative values are as filed. Compounds were drawn at random from those tested, without regard to their results.

{"compound": "CCN(Cc1nonc1C)C(=O)Cn1nc(C(F)(F)F)cc1C", "A": -1.1, "B": -3.464, "C": 32.79}
{"compound": "CCCc1noc(CN2CCC(NC(=O)c3ccc(C)s3)CC2)n1", "A": -8.036, "B": 2.792, "C": 9.222}
{"compound": "COc1ccc(F)cc1C(=O)N1CCn2c(nnc2C(F)(F)F)C1", "A": -5.934, "B": -1.582, "C": 5.789}
{"compound": "N#Cc1ccc(CN2CCC(c3ccnn3CCO)CC2)cc1", "A": -0.8343, "B": 6.845, "C": -5.21}
{"compound": "CN1CCN(C2CCOCC2)CC12CCC(=O)N(CC1CC1)CC2", "stereo": "centres undefined", "A": -7.834, "B": 1.948, "C": -38.62}
{"compound": "CCN1C[C@H]2N(c3ncccn3)CCC[C@@]2(C(=O)NCC2CC2)C1", "A": -1.468, "B": -0.2469}
{"compound": "[H][C@@]12CCN(C(=O)CC(C)C)C[C@@]1([H])O[C@@H](c1nccs1)C2", "C": -19.27}
{"compound": "CC[C@@H]1N(Cc2ccc(F)cc2)CCC[C@]12CCC(=O)N2CCOC.O=C(O)C(F)(F)F", "C": 16.34}
{"compound": "CCNCc1ccc(OCc2ccc3c(c2)OCCO3)cc1.Cl", "C": 57.45}
{"compound": "CN(CCN1CCCC1=O)CC(c1cccs1)N1CCOCC1", "stereo": "centres undefined", "A": -3.959, "B": 1.297, "C": 0.059}
{"compound": "Cn1cc(CN2CCCC3(CCN(C(=O)c4ccccn4)C3)C2)cn1.O=C(O)C(F)(F)F.O=C(O)C(F)(F)F.O=C(O)C(F)(F)F", "stereo": "centres undefined", "C": -8.941}
{"compound": "O=S(=O)(NC[C@H]1OC[C@@H](NCc2cccs2)[C@@H]1O)c1ccccc1", "A": -8.344, "B": 4.636, "C": 14.11}
{"compound": "CCN(C)c1ncnc2c1CCN(C(=O)N(C)C)CC2.O=C(O)C(F)(F)F", "C": 7.655}
{"compound": "CC(NC(=O)Cn1cccn1)c1ccc2c(c1)OCCO2", "stereo": "centres undefined", "A": 14.59, "B": 2.71, "C": -4.673}
{"compound": "Cc1ccnn1CCN1CCCC2(CCC(=O)N(C3CCCC3)C2)C1", "stereo": "centres undefined", "A": -17.02, "B": 6.901, "C": -7.265}
{"compound": "CO[C@H]1CCN(S(=O)(=O)c2cn(C)cn2)[C@H]1Cc1ccncc1", "A": -2.79, "B": -1.935, "C": 3.448}
{"compound": "Fc1cccc2[nH]c(CN3CCc4cncnc4C3)nc12", "A": 0.1482, "B": 1.449, "C": -17.17}
{"compound": "CS(=O)(=O)NCCN1CCCC1c1noc(C2CC2)n1", "stereo": "centres undefined", "A": -7.409, "B": 0, "C": -10.64}
{"compound": "Cc1cc(C)n(C2CCCN(C(=O)c3ccc(F)cc3F)C2)n1", "stereo": "centres undefined", "A": -1.817, "B": 4.762, "C": -7.77}
{"compound": "CC1CCCCN1C(=O)c1nc2c(n1C(C)C)CCN(C(=O)C1CC1)C2", "stereo": "centres undefined", "A": 10.9, "C": -3.83}
{"compound": "CC(Oc1cc(Cl)cc(Cl)c1)C(=O)NCCS(N)(=O)=O", "stereo": "centres undefined", "A": 1.91, "B": -1.456, "C": 20.53}
{"compound": "NC(=O)N1CCCN(CCCSCc2ccccc2)CC1", "A": 0.07393, "B": -8.696, "C": -0.3121}
{"compound": "CC(C)CNc1c(NCc2ccco2)c(=O)c1=O", "A": -22.38, "B": 0.2421, "C": 0.346}
{"compound": "CC(=O)N1[C@H](Cn2cncn2)C[C@@H]2CN(c3ncccn3)CC[C@@H]21", "A": -2.415, "B": -2.581}
{"compound": "Cc1nc(O)ccc1C(=O)NCc1ncccc1F", "A": -5.723, "B": -5.804, "C": 3.733}
{"compound": "O=C(O)C(F)(F)F.O=C(O)C(F)(F)F.[H][C@@]12COC[C@]1(COc1cccnc1)CN(Cc1ccsc1)C2", "C": 3.968}
{"compound": "COCCNC(=O)Cn1cc(NC(=O)c2ccc(C(C)(C)C)cc2)cn1", "A": 0.1944, "B": -3.929, "C": 12.84}
{"compound": "COCc1ncn2c1CN(C(=O)c1cccc3cccnc13)CC2.O=C(O)C(F)(F)F", "C": 3.639}
{"compound": "CC(CCc1ccccc1)N1CCC(C(=O)NCc2ccccc2)CC1", "stereo": "centres undefined", "A": -1.482, "B": 4.051, "C": -9.323}
{"compound": "CN(C)C(=O)c1cnc2n1CCN(Cc1ccncc1)C2", "A": 11.13, "B": -0.5, "C": -10.71}
{"compound": "O=C(CNCc1ccccc1Cn1cccn1)Nc1cnccn1", "A": 2.672, "B": 10.37, "C": -9.465}
{"compound": "COC(=O)[C@H](C)NC(=O)c1cc(-c2cccc(Cl)c2)no1", "A": -10.6, "B": 5.533, "C": 3.268}
{"compound": "COCCCNC(=O)NCc1nc(C)c(C)o1", "A": 16.36, "B": -13.1, "C": 0.05774}
{"compound": "COc1ccccc1-c1csc(NC(=O)N2CCN(C)CC2C)n1", "stereo": "centres undefined", "A": 2.663, "B": 6.2, "C": 11.33}
{"compound": "O=C(O)C(F)(F)F.[H][C@]12CCC[C@@H](CNc3nccn3C)[C@@]1([H])CN(Cc1cnn(C)c1)C2", "C": 2.859}
{"compound": "N#Cc1ccc(CC(=O)N2CCC(Nc3cccnn3)CC2)cc1", "A": -32.21, "B": 7.329, "C": -5.518}
{"compound": "COc1ccc(C(=O)NC2CC2)c(OC2CCN(C(C)CO)CC2)c1", "stereo": "centres undefined", "A": -8.476, "B": 2.314, "C": 9.763}
{"compound": "COc1cc2c(cc1OC)S(=O)(=O)N(Cc1ccc(C)cc1)C2=O", "A": -1.838, "C": -3.653}

Some entries from above, unchanged:

{"compound": "NC(=O)N1CCCN(CCCSCc2ccccc2)CC1", "A": 0.07393, "B": -8.696, "C": -0.3121}
{"compound": "COc1ccc(F)cc1C(=O)N1CCn2c(nnc2C(F)(F)F)C1", "A": -5.934, "B": -1.582, "C": 5.789}
{"compound": "CC[C@@H]1N(Cc2ccc(F)cc2)CCC[C@]12CCC(=O)N2CCOC.O=C(O)C(F)(F)F", "C": 16.34}

Source: ChEMBL document CHEMBL3988442, “University of Dundee, Small-Polar-MMV Screening Library” (2021).